Results on 61 compounds are retold here after PubChem BioAssay AID2685 (National Center for Advancing Translational Sciences (NCATS), 2010).

Molecules are shown by their SMILES. Some of the results follow. The main result of the screen is listed elsewhere. These columns were measured beside it and carry no call. Most of these compounds were active or inconclusive in the main read-out, so they are no random draw. Words in brackets tell the shape of the fitted curve; partial curves, single points and poor fits give uncertain potencies. Where a SMILES comes first, the peptide text is derived from it. The star is where a group is joined. Boc = CC(C)(C)OC(=O)*

A short description of this experiment: qHTS Assay for Lipid Storage Modulators in Drosophila S3 Cells.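 As to cell number change: cells counted by Cell Tracker Red CMTPX staining in the red channel.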 Conditions: BODIPY lipid droplet fluorescence, 18-24 h; for cell number change: measured here: cell count max response, cells fed with added oleic acid. The procedure, abridged:
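Drosophila S3 cells loaded with oleic acid (400 uM, as added) and compounds at several concentrations; lipid droplets imaged by 488-nm laser-scanning cytometry, 500–530 nm intensity and object ratio to cell channel. Percent activity normalized to 20 uM Triacsin C.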
A general note: Quantitative high-throughput screening tests each substance at several concentrations.

The mark [1] stands for this setting: measured here: lipid fluorescence (Fed channel) AC50, cells fed with added oleic acid.
[2] abbreviates: measured here: cell number channel AC50, cells fed with added oleic acid.

One may read the AC50 as the midpoint of the concentration-response curve, whichever way the signal moves. A lower AC50 goes with greater potency. On to `Cc1ccc(SCCNC(=O)/C=C/c2ccc(Cl)cc2)cc1`, for which the cell number change turned out to be 22.5%. Moreover, under setting [1], the half-maximal activity concentration (AC50) is 32.6 µM [rising, single point]. `Cc1oc(-c2ccccc2F)nc1CS(=O)CC(=O)NCc1ccc2c(c1)OCO2` (stereo not drawn): the cell number change came out at 14.5%. Turning to `O=C(NCCO)Nc1ccc2nsnc2c1`, the cell number change came to 116%. Further, the AC50 under setting [2] was 29.1 µM [rising, partial curve, poor fit]. On to `CCN1CCN(c2nc3c(c(=O)n(C)c(=O)n3C)n2Cc2cccc3ccccc23)CC1`, for which the AC50 under setting [1] is 1.3 µM [rising, partial curve]. Consider `O=C(CSc1cccc[n+]1[O-])Nc1cc([N+](=O)[O-])ccc1Cl`, for which, under setting [2], the AC50 was 5.8 µM [falling, single point]. For the compound `Cc1ccc(NC(=S)N(CCN(C)C)Cc2cc3cc(C)cc(C)c3[nH]c2=O)cc1`, the cell number change was 5.64%. In addition, the AC50 under setting [1] was 7.31 µM [rising, partial curve]. On to `Cc1ccccc1NC(=O)CN1C(=O)NC2(CCCCCCC2)C1=O`, for which the cell number change is 23.7%. For the compound `Cc1cc(-c2ccc(C)c(S(=O)(=O)NCCCN(Cc3ccccc3)C(C)C)c2)on1`, the cell number change was found to be 11%. In addition, under setting [1], the AC50 was 29.1 µM [rising, single point].

On to `CCC(C)C(NC(=O)OC(C)(C)C)C(=O)NC(Cc1ccccc1)C(=O)OC` (stereo not drawn) (Boc-Ile-Phe-OMe; configuration not given here), for which the cell number change worked out at 3.55%. The AC50 under setting [1] was 16.4 µM [rising, partial curve, poor fit]. For the compound `CCN(c1ccccc1)S(=O)(=O)c1ccc(Cl)c(NC(=O)COC(=O)c2ccc(O)cc2)c1`, the cell number change was -31.5%. The AC50 under setting [2] is 20.6 µM [falling, single point]. Also, under setting [1], the AC50 was 16.4 µM [falling, single point]. On to `COc1ccc(CC(=O)Nc2ccc(S(=O)(=O)Nc3nc(C)cc(C)n3)cc2)cc1`, for which the AC50 under setting [1] was 6.51 µM [falling, partial curve, poor fit]. As to `COc1ccc(NC(=S)N2CCC(NC(=O)c3ccc(OC)cc3)CC2)cc1`, the cell number change was 18.9%.

For `O=C(NCC(c1ccco1)N1CCCC1)c1cc2ccccc2s1` (stereo not drawn), the cell number change turned out to be 2.02%. The AC50 under setting [1] was 0.0651 µM [rising, full curve, poor fit]. Regarding `CN(CCC#N)C(=O)COC(=O)c1ccc2c(=O)n3c(nc2c1)CCC3`, the cell number change is -46.7%. Moreover, the AC50 under setting [2] was 16.4 µM [falling, single point]. For `Cc1ccc(NC(=O)CSc2nnc(-c3ccncc3)n2N)cc1C`, the cell number change was 3.97%.

With `Cc1ccc(C(=O)Nc2ccccc2C(=O)NCc2cccnc2)cc1`, the cell number change stood at 13%. Moreover, the AC50 under setting [1] is 29.1 µM [falling, single point]. On to `Cc1ccccc1NC(=O)c1cc2c(=O)n3cccc(C)c3nc2s1`, for which the cell number change came to 23.9%. Further, the AC50 under setting [1] was 4.11 µM [falling, single point]. Consider `N#Cc1ccc(NC(=S)NCCN2CCOCC2)cc1`, for which the cell number change was -2.03%. Moreover, under setting [1], the AC50 was 0.116 µM [rising, full curve, poor fit]. Regarding `Cc1ccc(OCc2nc(-c3ccccn3)n[nH]2)cc1`, the cell number change was found to be 13.4%. Under setting [1], the AC50 was 6.51 µM [falling, single point]. As for `Cc1ccccc1OCC(=O)Nc1ccc(C)c(S(=O)(=O)N2CCCCCC2)c1`, the AC50 under setting [1] was 0.517 µM [rising, single point]. With `O=S(=O)(CCSc1nc2ccccc2o1)Cc1ccccc1`, the cell number change was -5.33%. Under setting [1], the AC50 is 0.651 µM [falling, partial curve, poor fit]. On to `CCOc1cc(C(=O)NC(C)CC)cc(OCC)c1OCC` (stereo not drawn), for which the cell number change is -6.97%. In addition, the AC50 under setting [1] is 14.6 µM [rising, partial curve]. As for `Cc1ccnc(NC(=O)CSc2nnc3c(n2)[nH]c2ccccc23)c1`, the cell number change was -36.5%. For the same compound, under setting [2], the AC50 is 20.6 µM [falling, single point]. In addition, the AC50 under setting [1] is 18.4 µM [falling, partial curve]. On to `O=C(Nc1nnc(-c2ccccc2)o1)c1cccc(N2C(=O)CCC2=O)c1`, for which the cell number change came to 8.29%. On the same count and under the same terms, to `Cc1ccc(N2C(=O)CC(c3ccsc3)C3=C2CC(C)(C)CC3=O)cc1` (stereo not drawn) belongs 13.2%. In the case of `O=c1[nH]c(N2CCOCC2)nc2c1CCCC2`, the cell number change amounted to 13.5%. In addition, the AC50 under setting [1] is 29.1 µM [falling, single point].

As for `Cc1ccc(N2CCN(S(=O)(=O)c3c(C)nc4scc(C)n4c3=O)CC2)c(C)c1`, the AC50 under setting [1] was 29.1 µM [falling, single point]. Turning to `CCN(C(=O)CSc1nnnn1C)C1CCS(=O)(=O)C1` (stereo not drawn), under setting [1], the AC50 is 6.51 µM [rising, single point].

On to `Cc1c(OCC(=O)N[C@H](C(=O)O)c2ccccc2)ccc2c3c(c(=O)oc12)CCCC3`, for which the cell number change is 27.2%. The AC50 under setting [1] is 16.4 µM [rising, partial curve, poor fit]. Regarding `COc1ccc(-n2nc(N)c(C(N)=O)n2)cc1`, under setting [1], the AC50 was 0.164 µM [rising, full curve, poor fit]. Consider `COc1ccc(C(=O)C[n+]2cc(-c3ccc(OC)cc3)n3c2CCCC3)cc1`, for which the cell number change stood at 23.3%. Under setting [1], the AC50 was 29.1 µM [falling, single point].

As to `CCCCOC(=O)n1c(SCC(=O)N(C)C)nc2ccccc21`, the cell number change is -27.5%. In addition, under setting [1], the AC50 is 6.51 µM [falling, partial curve]. As for `CC(C)COC(=O)C1C(=O)CC(C)(O)C(C(=O)OCC(C)C)C1c1cccnc1` (stereo not drawn), the cell number change was -0.576%. Besides, the AC50 under setting [1] is 13 µM [falling, partial curve]. Turning to `C[C@@H]1C(=O)O[C@H]2[C@H](O)[C@@]34[C@H]5C[C@@H](C(C)(C)C)[C@]36[C@@H](OC(=O)[C@@H]6O)O[C@@]4(C(=O)O5)[C@@]12O`, the cell number change came to 16.2%. Also, the AC50 under setting [2] was 0.411 µM [falling, single point]. For `COc1ccc(-c2cc(C(=O)NCCCN3CCCC3=O)c3ccccc3n2)cc1`, the cell number change amounted to 138%. Under setting [2], the AC50 is 18.4 µM [rising, partial curve]. With `CC(=O)Nc1ccc(N2C(=O)C3C4CC(=O)C(c5ccccc54)C3C2=O)cc1` (stereo not drawn), the cell number change is -28.2%. Under setting [1], the AC50 is 23.1 µM [falling, partial curve]. Turning to `CC(C)c1ccc(-c2noc(C3CCCN(C(=O)c4ccc(F)cc4F)C3)n2)cc1` (stereo not drawn), the cell number change was -50%. Moreover, under setting [2], the half-maximal activity concentration (AC50) is 20.6 µM [falling, single point]. In addition, under setting [1], the AC50 is 11.6 µM [falling, partial curve]. As for `CC1(C)C(=O)NCCN1C(=O)c1ccc2nc(Cc3ccccc3F)oc2c1`, the cell number change was found to be 28.2%. Also, under setting [1], the AC50 is 5.17 µM [rising, full curve, poor fit]. As for `CCOC(=O)N1CCN(C(=O)C(=O)Nc2sc3c(c2C#N)CC(C)(C)OC3)CC1`, the cell number change is -24.5%. Also, the AC50 under setting [1] is 29.1 µM [falling, single point]. `Cc1[nH]c2ccccc2c1C(=O)COC(=O)C1CC(=O)N(Cc2ccccc2)C1` (stereo not drawn): the cell number change is 44.7%. Also, the AC50 under setting [2] was 7.31 µM [rising, partial curve]. Also, the AC50 under setting [1] is 13 µM [rising, partial curve]. As for `CCOC(=O)NNC(=O)NCCCCCCNC(=O)NNC(=O)OCC`, the cell number change was -38.4%. Moreover, under setting [2], the AC50 was 0.82 µM [falling, full curve]. Besides, the AC50 under setting [1] is 0.731 µM [falling, full curve].

As for `CCC[C@@H]1C[C@@]1(CCC)[C@@H](NP(=O)(c1ccccc1)c1ccccc1)c1ccc(C(=O)OC)cc1`, the cell number change is -76.7%. Also, under setting [2], the AC50 is 16.4 µM [falling, single point]. The AC50 under setting [1] was 10.3 µM [rising, single point].

Take `COc1ccc(C(=O)Nc2ccc(-c3n[nH]c(=S)o3)cc2)cc1OC`: the cell number change is -2.7%. Regarding `Cc1cccc(C(=O)NNC(=O)c2ccc(S(=O)(=O)N3CCOCC3)cc2)c1`, the cell number change was determined as 28.3%. For the same compound, the AC50 under setting [1] is 0.103 µM [falling, full curve, poor fit]. `CC1=C(C(=O)OCC2CCCO2)C(c2ccc(Cl)cc2)NC(=O)N1` (stereo not drawn): the cell number change was -13.8%. In addition, the AC50 under setting [2] was 0.411 µM [rising, single point]. In the case of `COc1cc(OC)cc(C(=O)NNC(=O)c2cc(=O)[nH]c3ccccc23)c1`, the cell number change was -13.9%. Further, the AC50 under setting [1] was 0.0058 µM [falling, full curve, poor fit]. As to `COc1cc(/C=C/C(=O)c2ccc(C)cc2)ccc1OCC#N`, the cell number change was -24%. Further, under setting [2], the half-maximal activity concentration (AC50) was 0.00461 µM [falling, full curve, poor fit]. Under setting [1], the AC50 is 0.206 µM [falling, partial curve, poor fit]. Turning to `CC1CC(C)CN(C(=O)CSc2nc3ccsc3c(=O)n2Cc2ccccn2)C1` (stereo not drawn), the cell number change came to 21.7%. The AC50 under setting [1] is 0.411 µM [rising, partial curve]. With `CCCn1c(=O)[nH]c2ccccc21`, the cell number change is -15.4%.

On to `Cn1cc(S(=O)(=O)N2CCc3ccccc32)cc1C(=O)NC(C)(C)C`, for which the cell number change was -16.1%. Regarding `CC1(C)OC(=O)C=C[C@]2(C)[C@H]3CC[C@@]4(C)[C@H](C(=O)O)OC(=O)[C@H]5O[C@]54[C@]3(C)C(=O)C[C@@H]12`, the cell number change was -9.75%. For the compound `CC1=C(C(=O)OC(C)C)C(c2ccc(Cl)cc2)n2c(s/c(=C\c3ccc(OCC(=O)O)cc3)c2=O)=N1` (stereo not drawn), the cell number change stood at 22.8%. For the same compound, under setting [1], the AC50 was 32.6 µM [falling, single point]. Regarding `Cn1nnc2c(sc3nc(N4CCOCC4)c4c(c32)CCCC4)c1=O`, under setting [2], the AC50 was 2.31 µM [rising, partial curve]. As to `CCOC(=O)C1=C(C)NC(C)=C(C(=O)OCC)C1c1ccc(Br)o1`, the cell number change worked out at 0.489%. Besides, the AC50 under setting [1] is 20.6 µM [falling, single point]. `O=C(N/N=C/c1ccc(N2CCOCC2)cc1)C1CC1`: the cell number change came to 23.2%.

For `CN(Cc1ccccc1)C(=O)c1nc[nH]c1C(=O)N1CCN(c2ccccc2)CC1`, the cell number change was found to be 15.5%. Under setting [1], the AC50 is 0.116 µM [falling, single point]. For the compound `Cc1ccc(C)c(S(=O)(=O)N(C)Cc2cccs2)c1`, the cell number change was -8.64%. Besides, the AC50 under setting [1] was 0.0731 µM [falling, full curve, poor fit]. Consider `O=C(CCS(=O)(=O)c1ccccc1)Nc1nnc(-c2ccco2)o1`, for which the cell number change is -0.587%. For `COC(=O)C[N+](C)(C)CC#Cc1ccccc1`, the cell number change is -10.1%. The AC50 under setting [1] is 20.6 µM [falling, partial curve]. For the compound `CCc1nnc(NC(=O)CN2CCC(O)(c3ccccc3OC)CC2)s1`, the cell number change worked out at 12.2%. In the case of `COc1ccc(-c2nnc(-c3ccccc3)o2)cc1OC`, the cell number change is -16.8%. In addition, the AC50 under setting [1] is 29.1 µM [falling, single point].
